# Screening data, single-dose tests

Chains of the proteins cited; added tags and fusions are not shown. Residues count along the entry.
UniProt Q8IDJ8, 1-583: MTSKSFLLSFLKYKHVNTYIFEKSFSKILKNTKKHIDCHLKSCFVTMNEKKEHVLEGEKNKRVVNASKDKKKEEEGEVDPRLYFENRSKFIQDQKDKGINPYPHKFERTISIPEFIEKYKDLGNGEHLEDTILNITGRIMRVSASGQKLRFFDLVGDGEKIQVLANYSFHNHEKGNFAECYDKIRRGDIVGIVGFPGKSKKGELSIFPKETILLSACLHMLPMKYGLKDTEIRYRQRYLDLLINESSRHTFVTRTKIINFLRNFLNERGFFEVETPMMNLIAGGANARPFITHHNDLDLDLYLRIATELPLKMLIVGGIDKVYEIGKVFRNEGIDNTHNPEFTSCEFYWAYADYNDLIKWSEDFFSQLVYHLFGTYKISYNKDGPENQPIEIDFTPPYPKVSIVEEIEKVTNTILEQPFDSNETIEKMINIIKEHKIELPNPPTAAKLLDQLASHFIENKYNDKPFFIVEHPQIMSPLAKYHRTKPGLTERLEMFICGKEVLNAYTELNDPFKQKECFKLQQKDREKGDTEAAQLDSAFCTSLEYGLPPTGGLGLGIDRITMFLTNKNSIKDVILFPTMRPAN

A: 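Assay of Toxoplasma gondii numbers, read through their beta-galactosidase reporter with a colour substrate. Tested at 10 µM. Higher reads as fewer parasites (inferred from which compounds were picked for retests). Size under these conditions: about 67,000 compounds, about 260 of them at 50% or above in at least one test.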
B: 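Whole-parasite assay of Trypanosoma brucei over 72 hours; the read-out is not stated. Compounds at 30 µM. Higher reads as stronger inhibition (inferred: compounds with an IC50 in retests scored well above the rest). Values scatter widely below zero; nearly all retest evidence comes from the higher of the two concentrations used. About 64,000 compounds were tested under these conditions; 1.5% (about 940) showed 50% or more at least once.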
C: 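Cell assay of Leishmania donovani living inside macrophages; the read-out is not stated. Compounds at 30 µM. Higher reads as stronger inhibition (inferred: compounds with an IC50 in retests scored well above the rest). About 69,000 compounds were tested under these conditions; 1.5% (about 1,000) showed 50% or more at least once.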
D: 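Lysine-tRNA ligase, Plasmodium falciparum 3D7 (UniProt Q8IDJ8). Enzyme assay of the cytosolic lysyl-tRNA synthetase in 384-well plates, read by luminescence. Compounds at 30 µM. Higher reads as stronger inhibition, judged from the few compounds that gave an IC50. Of about 69,000 compounds tested this way, about 49 (0.071%) reached 50% or more in at least one test.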

Each number is a percent effect as filed. How 0% and 100% were set is not recorded. Most values in the screen are low, and negative values occur. Compounds were drawn at random from those tested, without regard to their results. Two or more numbers in one place are separate tests of the same structure; such repeats can differ widely. A dash means the value is not listed here; it may have been measured.

SMILES	A	B	C	D
C/N=C1\c2cc3cc(OC)ccc3n2CCN1Cc1ccccc1	-	-	-	2.786
O=C(O)C(F)(F)F.O=C(O)C(F)(F)F.[H][C@]12COC[C@@H](N(C)C)[C@@]1([H])CN(Cc1ccc3c(c1)OCO3)C2	-5.964	-	-33.77	-
O=C(CCN1CCc2ccccc21)N1CC(C(=O)N2CCOCC2)C1	14.15	9.706	13.86	-0.3343
CCN1CC2(CC1=O)CN(Cc1cnn(C)c1)CCN(C(=O)C(C)C)C2.O=C(O)C(F)(F)F (centres unmarked)	-2.705	28.91	7.411	-
OCCN1CCC2(CCc3cc(-c4ccoc4)ccc32)CC1	-	-	-	-2.594
CC(C)CC(CNC(=O)NCc1cc[nH]n1)N1CCOCC1 (centres unmarked)	8.496	-7.36	-6.474	2.298
O=C(CCc1ccsc1)N1CCC(Nc2cccnn2)CC1	-12.28	-11.9	12.24	-0.628
c1cc2c(cc1-c1noc3c1CN(C1CCC1)CC3)OCO2	6.42	4.931	3.681	1.634
O=C(NCCN1CCCCC1)c1nc(-c2ccc3cc[nH]c3c2)no1	-1.913	29.87	2.361	0.5481
Nc1nc(N)c2c(n1)OC1(CCCN(Cc3nccs3)CC1)C2 (centres unmarked)	20.2	-6.336	27.22	0.9106
O=C(O)C(F)(F)F.c1nc2c(c(C3CC3)n1)CCN(Cc1ccc3c(c1)OCO3)CC2	16.85	0.9057	-14.6	-
CCn1c(CC2CCN(S(=O)(=O)c3cccs3)CC2)nn(C)c1=O	-6.193	20.47	-13.42	-5.07
COc1cccc(COCC(=O)N2CCC(CC(N)=O)CC2)c1	-25.12	-44.37	-26.96	-0.5942
CN(C)c1ccc(C2CCN(c3cnccn3)CC2)nc1	-2.901	28.27	-21.11	-0.2094
COc1c(C2CCCN2CC(=O)Nc2ccncc2)c(C)nn1C (centres unmarked)	28.68	-41.49	39.36	0.12
COc1cccc2c1CCN(C(=O)NCCc1nccn1C)C2	0.6866	-12.71	20.5	0.1243
Cc1cccc(C2(NC(=O)CCCn3cncn3)CCCC2)c1	0.8738	2.791	20.91	5.213
CS(=O)(=O)N1CCN(c2ccc3ccc(C(=O)NC4CC4)cn23)CC1	-2.7	-6.911	13.02	0.9887
Fc1ccccc1OC1CCN(CCn2cc3ccccc3n2)CC1	16.47	-41.53	19.22	-2.629
Cc1nnc([C@@H]2C[C@H]3CN(C(=O)c4c(C)noc4C)C[C@H]3O2)[nH]1	-	-	-	9.892
CC(C)N1C[C@H](NC(=O)c2coc(COc3cccc(F)c3)n2)[C@@H](O)C1	0.3067	-241.3	14.91	6.444
CC(C)n1cnnc1CN(C)Cc1cnc(-c2ccco2)nc1	-6.715	-20.53	6.562	2.822
CC(=O)N1CCCC2(CCN(C(=O)c3nn(C)c4ccccc34)CC2)C1	-28.65	-15.25	1.001	3.74
Cc1nc(C2CCCN2C(=O)CCCn2cccn2)no1 (centres unmarked)	5.48	-	7.795	1.231
CN(Cc1nccn1C)S(=O)(=O)c1cccc(C#N)c1	-0.7521	-35	6.229	0.3254
Cc1ncnc2c1CCN(C(=O)N(C)C)CC2	-3.89	-36.44	4.91	4.196
Cc1nc(CN2CCN(C(=O)COc3c(C)ccc(C)c3C)CC2)no1	8.522	-9.903	28.18	6.685
CC(=O)c1ccc(NC(=O)C(C)Cn2cc(Br)cn2)cc1 (centres unmarked)	17.68	-0.07055	4.665	5.62
COc1ccc(CN2C[C@@H]3CN(C(=O)c4ccsc4)C[C@@H]3C2=O)cc1	-	-	-	8.174
CCOc1ccccc1C(=O)NCCc1ccoc1	3.376	-4.419	28.03	4.522
O=c1cc(N2CCNCC2)cnn1CCc1ccc(F)cc1	-20.05	4.082	-2.982	-0.2027
Cc1nn(C)c(Cl)c1C1CCCN1C(=O)c1ccnn1C (centres unmarked)	-11.08	3.432	0.6359	2.714
COCc1ncc(CN(Cc2ccncc2)Cc2ccc(C)s2)cn1	8.786	-6.409	-10.33	4.212
COc1ccc(CN(Cc2ccccn2)Cc2cncn2C)cc1	-	-	-	0.9882
[H][C@@]12CN(CC3CCC3)C[C@]1([H])OCCN2c1ncc(F)cn1	-0.1068	-8.33	37.32	-
CC(C)(C)CN1CCN(CC2CC2)C(CCO)C1 (centres unmarked)	8.53	-40.11	47.96	2.526
CN(CC1CCCCO1)c1nc2c(cc1C(N)=O)CCC2 (centres unmarked)	11.16	-32.83	4.757	2.91
CC(=O)N1CCC(c2nn(C)c(=O)n2-c2ccccc2)CC1	-6.056	-32.93	20.62	2.771
NC(=O)CCN(C(=O)CSc1ccc(F)cc1)c1ccc(F)cc1	-7.126	-44.27	-69.18	-6.598
Cc1nccn1-c1ccc(NC(=O)C2CCCN2Cc2c[nH]cn2)cc1 (centres unmarked)	-4.197	7.571	-1.359	-1.163
COc1ccnc(N2C[C@@H](NS(=O)(=O)N(C)C)[C@H](C(C)C)C2)n1	-6.141	-91.64	-23.73	4.264
O=C(NCC1CCN(c2ncccn2)CC1)c1cnccn1	-4.442	1.78	3.083 & 16.71	8.926
O=C(CN1CC(c2nc(-c3ccco3)no2)C1)NCc1ccc(F)cc1	-	-	-	5.572
O=C1N(C2CCOCC2)CCCC12CCN(c1ncccc1Cl)C2 (centres unmarked)	-5.455	-39.91	38.1	4.761
COc1ccc(C(=O)C2CCCN(Cc3cc(C)n[nH]3)C2)c(OC)c1 (centres unmarked)	-9.294	6.389	-18.21	-1.184

Some entries from above, unchanged:

SMILES,A,B,C,D
CC(=O)N1CCCC2(CCN(C(=O)c3nn(C)c4ccccc34)CC2)C1,-28.65,-15.25,1.001,3.74
O=C(NCCN1CCCCC1)c1nc(-c2ccc3cc[nH]c3c2)no1,-1.913,29.87,2.361,0.5481
COc1c(C2CCCN2CC(=O)Nc2ccncc2)c(C)nn1C (centres unmarked),28.68,-41.49,39.36,0.12
COc1cccc(COCC(=O)N2CCC(CC(N)=O)CC2)c1,-25.12,-44.37,-26.96,-0.5942
CN(Cc1nccn1C)S(=O)(=O)c1cccc(C#N)c1,-0.7521,-35,6.229,0.3254

Data taken from ChEMBL document CHEMBL3988442, “University of Dundee, Small-Polar-MMV Screening Library” (2021).